Holding throughout (conditions): stereoisomer not certain
One experiment has as its target T1, UniProt A2ATE5.
T1 sequence (whole entry): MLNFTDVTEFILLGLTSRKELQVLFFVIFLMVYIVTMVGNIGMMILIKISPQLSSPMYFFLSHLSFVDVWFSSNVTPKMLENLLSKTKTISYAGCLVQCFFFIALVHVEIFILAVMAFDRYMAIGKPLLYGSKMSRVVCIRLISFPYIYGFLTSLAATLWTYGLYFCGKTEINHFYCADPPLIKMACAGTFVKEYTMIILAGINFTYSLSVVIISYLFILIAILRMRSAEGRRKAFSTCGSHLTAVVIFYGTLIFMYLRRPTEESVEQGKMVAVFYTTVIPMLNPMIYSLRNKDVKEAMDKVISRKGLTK
The procedure, abridged: (§1)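 Each receptor–molecule pair is labelled responsive or non-responsive (inactive) according to whether the original authors judged the measured signal statistically different from baseline. The data were taken from the main text and supplementary material of published papers and checked for typos and inconsistencies. Assay methods differed by source, with transient luciferase assays in mammalian cell lines being common.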

Chains of the proteins cited; added tags and fusions are not shown. Lines headed by an entry give the natural chain unless they say otherwise; changes in a name come on top. A line that says so, or that is headed by a name, gives the form on record, which may keep a tag or linker.
UniProt A2ASV2, as listed by the source: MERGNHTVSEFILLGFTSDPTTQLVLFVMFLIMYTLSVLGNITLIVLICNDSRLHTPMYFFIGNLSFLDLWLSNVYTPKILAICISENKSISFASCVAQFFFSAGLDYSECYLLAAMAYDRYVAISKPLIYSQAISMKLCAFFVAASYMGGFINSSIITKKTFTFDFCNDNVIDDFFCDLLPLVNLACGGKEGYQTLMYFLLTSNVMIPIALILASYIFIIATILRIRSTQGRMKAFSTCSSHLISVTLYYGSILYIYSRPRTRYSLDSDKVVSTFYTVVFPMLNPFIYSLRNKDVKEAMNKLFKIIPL
UniProt A2AVA9, as listed by the source: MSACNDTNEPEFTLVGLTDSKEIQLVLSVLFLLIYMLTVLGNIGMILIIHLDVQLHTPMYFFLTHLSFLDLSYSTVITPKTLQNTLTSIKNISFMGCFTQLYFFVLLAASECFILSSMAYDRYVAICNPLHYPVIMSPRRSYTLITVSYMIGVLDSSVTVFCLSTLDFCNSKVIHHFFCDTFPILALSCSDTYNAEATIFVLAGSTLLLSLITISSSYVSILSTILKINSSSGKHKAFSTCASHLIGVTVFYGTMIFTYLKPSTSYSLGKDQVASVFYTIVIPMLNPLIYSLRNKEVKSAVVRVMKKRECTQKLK
UniProt A2AVC3, as listed by the source: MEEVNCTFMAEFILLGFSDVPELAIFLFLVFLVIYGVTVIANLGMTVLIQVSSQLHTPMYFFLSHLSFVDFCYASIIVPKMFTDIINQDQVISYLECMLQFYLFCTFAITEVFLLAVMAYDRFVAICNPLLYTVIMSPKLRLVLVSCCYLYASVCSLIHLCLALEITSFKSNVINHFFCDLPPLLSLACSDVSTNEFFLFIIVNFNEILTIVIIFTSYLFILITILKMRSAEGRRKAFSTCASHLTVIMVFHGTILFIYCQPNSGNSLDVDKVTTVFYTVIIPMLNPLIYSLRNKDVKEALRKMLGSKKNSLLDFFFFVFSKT
UniProt E1BBG9, as listed by the source: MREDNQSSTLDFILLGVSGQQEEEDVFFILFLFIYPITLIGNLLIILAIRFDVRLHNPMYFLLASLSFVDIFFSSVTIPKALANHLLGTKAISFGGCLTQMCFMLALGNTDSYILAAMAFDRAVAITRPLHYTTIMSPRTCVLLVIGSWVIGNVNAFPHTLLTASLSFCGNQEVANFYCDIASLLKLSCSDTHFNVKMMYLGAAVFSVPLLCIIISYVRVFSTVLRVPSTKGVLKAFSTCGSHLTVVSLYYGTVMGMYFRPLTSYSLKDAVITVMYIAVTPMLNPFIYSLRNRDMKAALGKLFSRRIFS
UniProt E9PXH6, as listed by the source: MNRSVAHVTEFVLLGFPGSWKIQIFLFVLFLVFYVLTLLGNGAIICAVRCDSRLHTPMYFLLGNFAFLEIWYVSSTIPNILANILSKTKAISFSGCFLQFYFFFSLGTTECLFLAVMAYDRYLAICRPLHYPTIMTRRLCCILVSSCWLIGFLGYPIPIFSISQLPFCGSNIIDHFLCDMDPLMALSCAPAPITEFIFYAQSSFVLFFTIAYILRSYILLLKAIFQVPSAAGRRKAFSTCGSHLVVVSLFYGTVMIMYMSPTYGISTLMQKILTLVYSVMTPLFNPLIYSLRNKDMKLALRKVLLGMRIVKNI

Another experiment deals with T2, UniProt A2AVB0.
T2 sequence (whole entry): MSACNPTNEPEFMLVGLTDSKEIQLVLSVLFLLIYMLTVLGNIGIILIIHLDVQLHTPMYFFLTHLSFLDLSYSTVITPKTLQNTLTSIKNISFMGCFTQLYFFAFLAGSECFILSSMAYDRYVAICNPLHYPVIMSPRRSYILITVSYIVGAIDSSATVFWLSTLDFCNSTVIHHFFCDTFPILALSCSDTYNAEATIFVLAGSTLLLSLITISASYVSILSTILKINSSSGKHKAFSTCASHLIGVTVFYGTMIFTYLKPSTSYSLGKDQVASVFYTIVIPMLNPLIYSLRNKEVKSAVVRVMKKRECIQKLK
The procedure, abridged:
as §1

The next experiment deals with T3, UniProt E9PVX1.
T3 sequence (whole entry): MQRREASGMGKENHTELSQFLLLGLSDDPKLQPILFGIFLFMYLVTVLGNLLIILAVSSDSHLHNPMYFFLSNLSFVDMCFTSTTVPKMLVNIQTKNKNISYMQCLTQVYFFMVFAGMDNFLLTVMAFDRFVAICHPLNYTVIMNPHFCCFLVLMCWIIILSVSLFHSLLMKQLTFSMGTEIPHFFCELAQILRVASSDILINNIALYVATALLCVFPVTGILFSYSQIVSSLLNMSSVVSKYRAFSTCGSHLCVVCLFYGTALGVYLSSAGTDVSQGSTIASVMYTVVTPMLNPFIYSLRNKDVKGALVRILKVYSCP
A digest of the protocol:
as §1

Another experiment has as its target T4, UniProt E9PX47.
T4 sequence (whole entry): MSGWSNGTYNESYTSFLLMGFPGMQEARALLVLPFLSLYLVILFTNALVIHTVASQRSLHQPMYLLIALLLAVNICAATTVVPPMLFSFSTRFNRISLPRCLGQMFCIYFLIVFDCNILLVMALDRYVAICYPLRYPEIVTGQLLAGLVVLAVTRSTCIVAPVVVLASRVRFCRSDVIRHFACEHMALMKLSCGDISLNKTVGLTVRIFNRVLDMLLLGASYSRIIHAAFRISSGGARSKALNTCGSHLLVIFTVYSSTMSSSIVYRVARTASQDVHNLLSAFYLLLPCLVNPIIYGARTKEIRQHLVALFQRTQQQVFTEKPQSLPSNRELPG
The procedure, abridged: as §1

A further experiment deals with T5, UniProt E9PXN3.
T5 sequence (whole entry): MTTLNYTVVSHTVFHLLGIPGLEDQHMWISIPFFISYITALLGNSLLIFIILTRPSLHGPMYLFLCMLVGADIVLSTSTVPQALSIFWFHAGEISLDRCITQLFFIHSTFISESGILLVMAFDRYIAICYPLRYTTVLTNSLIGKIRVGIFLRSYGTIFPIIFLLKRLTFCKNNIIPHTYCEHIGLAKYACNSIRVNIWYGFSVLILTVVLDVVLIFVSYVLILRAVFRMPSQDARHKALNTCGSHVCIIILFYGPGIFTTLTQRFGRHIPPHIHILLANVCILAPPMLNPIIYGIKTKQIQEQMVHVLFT
The procedure, abridged: as §1

Another experiment concerns the target T6, UniProt E9PZ66.
T6 sequence (whole entry): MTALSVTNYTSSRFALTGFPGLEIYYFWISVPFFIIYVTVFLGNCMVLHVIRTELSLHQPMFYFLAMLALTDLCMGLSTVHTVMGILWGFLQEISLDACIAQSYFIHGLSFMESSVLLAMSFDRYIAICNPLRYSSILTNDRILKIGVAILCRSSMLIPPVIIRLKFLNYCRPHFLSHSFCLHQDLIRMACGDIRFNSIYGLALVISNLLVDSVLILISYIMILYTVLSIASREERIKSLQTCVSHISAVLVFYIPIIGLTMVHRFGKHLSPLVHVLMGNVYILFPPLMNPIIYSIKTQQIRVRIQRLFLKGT
The procedure, abridged:
as §1

A further experiment addresses T7, UniProt E9Q4X7.
T7 sequence (whole entry): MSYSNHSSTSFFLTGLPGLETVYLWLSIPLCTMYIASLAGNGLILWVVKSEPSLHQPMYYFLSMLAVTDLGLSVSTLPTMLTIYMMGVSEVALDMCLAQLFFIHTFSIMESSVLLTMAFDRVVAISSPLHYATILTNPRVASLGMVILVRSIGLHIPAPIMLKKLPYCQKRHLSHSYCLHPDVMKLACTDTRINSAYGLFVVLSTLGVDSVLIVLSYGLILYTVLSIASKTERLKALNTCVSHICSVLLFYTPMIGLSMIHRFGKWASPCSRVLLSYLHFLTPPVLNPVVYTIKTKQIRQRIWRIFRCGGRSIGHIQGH
A digest of the protocol:
as §1

The target in a further experiment is T8, UniProt E9Q546.
T8 sequence (whole entry): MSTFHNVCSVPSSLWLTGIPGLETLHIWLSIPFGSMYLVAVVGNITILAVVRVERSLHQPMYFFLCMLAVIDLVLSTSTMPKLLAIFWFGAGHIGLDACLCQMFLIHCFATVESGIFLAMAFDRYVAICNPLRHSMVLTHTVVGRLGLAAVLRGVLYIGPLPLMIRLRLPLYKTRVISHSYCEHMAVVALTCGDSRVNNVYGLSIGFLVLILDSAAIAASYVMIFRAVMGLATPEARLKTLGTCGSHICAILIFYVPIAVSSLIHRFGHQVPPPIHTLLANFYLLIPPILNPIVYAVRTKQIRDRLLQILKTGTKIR
A digest of the protocol:
as §1

Another experiment has as its target T9, UniProt A2AVB5.
T9 sequence (whole entry): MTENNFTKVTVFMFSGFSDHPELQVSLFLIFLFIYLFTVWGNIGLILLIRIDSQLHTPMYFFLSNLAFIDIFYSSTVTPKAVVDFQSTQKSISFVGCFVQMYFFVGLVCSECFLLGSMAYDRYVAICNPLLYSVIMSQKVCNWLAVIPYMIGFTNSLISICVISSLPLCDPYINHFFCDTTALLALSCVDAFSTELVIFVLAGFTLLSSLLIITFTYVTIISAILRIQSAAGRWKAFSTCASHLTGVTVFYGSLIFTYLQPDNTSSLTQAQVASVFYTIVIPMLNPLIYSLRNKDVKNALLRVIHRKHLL
The procedure, abridged: as §1

In a further experiment the target is T10, UniProt B2RVX8.
T10 sequence (whole entry): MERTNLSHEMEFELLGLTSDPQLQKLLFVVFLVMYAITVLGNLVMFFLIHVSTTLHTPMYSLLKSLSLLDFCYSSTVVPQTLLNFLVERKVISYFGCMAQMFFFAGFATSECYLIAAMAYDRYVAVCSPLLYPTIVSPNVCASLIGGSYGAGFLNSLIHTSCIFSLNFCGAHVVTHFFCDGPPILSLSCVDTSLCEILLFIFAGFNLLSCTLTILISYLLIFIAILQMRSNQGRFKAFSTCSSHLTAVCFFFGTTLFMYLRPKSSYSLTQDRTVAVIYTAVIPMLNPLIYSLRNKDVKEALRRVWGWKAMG
A digest of the protocol: as §1

Experiment [1] relates to Q7TRX1 G106A A108G A152G V205I. A digest of the protocol: as §1
For another experiment, the system named is Q7TRX1 G106A. A digest of the protocol: as §1
Another experiment relates to Q7TRX1 V205I. The procedure, abridged: as §1
The target in the next experiment is UniProt A2ASV2. A digest of the protocol:
as §1

A further experiment deals with UniProt A2AVA9. The procedure, abridged: as §1
For the next experiment, the target named is UniProt A2AVC3. The procedure, abridged:
as §1

A further experiment deals with UniProt E1BBG9. The procedure, abridged:
as §1

Another experiment concerns the target UniProt E9PXH6. A digest of the protocol:
as §1

Structures are written as SMILES. Only a part is listed here, and it is no random draw. Calls are pooled over several reports, among them a noisy single-well screen. Some of the results follow.
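Also: active if original authors judged signal statistically different from baseline.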

Turning to `CCCCCOC(C)=O`, the “odorant receptor agonist call” value with UniProt A2ATE5, in the experiment with UniProt A2AVB0, with UniProt E9PVX1, with UniProt E9PX47, with UniProt E9PXN3 and in the experiment with UniProt E9PZ66 was “inactive” throughout. Moreover, the “odorant receptor agonist call” value in the experiment with UniProt E9Q4X7 and with UniProt E9Q546 was “inactive” throughout.
For the compound `CC12CCC(C1)C(C)(C)C2=O` (stereo not given), the “odorant receptor agonist call” value with UniProt A2AVB5, with UniProt B2RVX8 and with UniProt E9Q546 was “inactive” in each case.
For `C=C(C)C1CC=C(C)C(=O)C1` (stereo not given), the “odorant receptor agonist call” value (in experiment [1]; with Q7TRX1 G106A; in the experiment on Q7TRX1 V205I; with UniProt E1BBG9; with UniProt E9PXH6) was “active” in each case. In addition, the “odorant receptor agonist call” value with UniProt A2ASV2, in the experiment with UniProt A2ATE5, with UniProt A2AVA9, in the experiment with UniProt A2AVB0, in the experiment with UniProt A2AVB5 and with UniProt A2AVC3 was “inactive” throughout. Further, the “odorant receptor agonist call” value with UniProt B2RVX8, with UniProt E9PVX1, with UniProt E9PX47, with UniProt E9PXN3, with UniProt E9PZ66 and with UniProt E9Q4X7 was “inactive” throughout. The “odorant receptor agonist call” value with UniProt E9Q546 is “inactive”.
With `CC(C)(O)CCCC1=CCC(C=O)CC1` (stereo not given), the “odorant receptor agonist call” value with UniProt A2ATE5, with UniProt A2AVB0, in the experiment with UniProt A2AVB5, with UniProt B2RVX8, in the experiment with UniProt E9PVX1 and with UniProt E9PZ66 was “inactive” throughout. In addition, the “odorant receptor agonist call” value with UniProt E9Q4X7 and with UniProt E9Q546 was “inactive” throughout.
Consider `C=CCc1ccc(O)c(OC)c1`, for which the “odorant receptor agonist call” value in the experiment with UniProt A2ATE5, with UniProt A2AVB0, with UniProt E9PVX1, with UniProt E9PX47, with UniProt E9PXN3 and with UniProt E9PZ66 was “inactive” throughout. The “odorant receptor agonist call” value with UniProt E9Q4X7 and with UniProt E9Q546 was “inactive” in each case.
As to `CCCCCC(=O)O`, the “odorant receptor agonist call” value with UniProt A2ATE5, with UniProt A2AVB0, with UniProt A2AVB5, in the experiment with UniProt B2RVX8, with UniProt E9PVX1 and with UniProt E9PX47 was “inactive” each time. The “odorant receptor agonist call” value with UniProt E9Q4X7 and in the experiment with UniProt E9Q546 was “inactive” in each case. Besides, the “odorant receptor agonist call” value with UniProt E9PXN3 and with UniProt E9PZ66 was “active” in each case.

The values are drawn from the M2OR odorant receptor database.
